PubChem BioAssay AID1053208, Peter MacCallum Cancer Centre – 2014

Aim: 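Synthetic lethal interactions between gene loss and doxorubicin in osteosarcoma cells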 (primary screen)
System: mouse osteosarcoma cells, early-passage culture from an engineered mouse model of fibroblastic bone tumour
Reagents: siRNA pool against mouse genes, 40 nM
Timing: about 120 h (48 h before drug, then 72 h with drug)
Conditions: doxorubicin 100 nM for 72 h, roughly 30-40% inhibitory dose
Measured: 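Luminescent ATP signal taken as viability with or without 100 nM doxorubicin for 72 h; mean of two wells set against non-targeting siRNA and turned into robust z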
Reading the numbers: viability z-score with doxorubicin: higher = more viable cells under doxorubicin; viability z-score without drug: higher = more viable cells with knock-down alone
Active means: 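Called active if knock-down leaves viability unchanged without drug (z within -2 to 2) but lowers it with doxorubicin (z at or under -2)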
The deposit covers about 17,000 reagents; below is an unselected part. 788 of them (4.7%) count as active. 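Calls rest on z-score classes alone; an extra cut-off of viability at most 70% of control was not applied to them.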 Unmarked entries are inactive. Not all columns of the deposit are shown.

no.	target	combined z-score class	viability z-score with doxorubicin	viability z-score without drug
1	Pnrc1	no change with or without drug	1.35	0.84
2	Txlnb	no change with or without drug	1.91	0.51
3	Pcdhgb5	no change with or without drug	0	0.84
4	Sh3d19	no change with or without drug	-0.45	-1.52
5	Ascl1	no change with or without drug	-0.9	-1.18
6	Etv6	no change with or without drug	-0.34	-1.01
7	Pspn	no change with or without drug	-0.56	-0.51
8	Pus3	no change with or without drug	-1.8	0.17
9	Dmac1	no change with or without drug	1.35	-1.18
10	Sar1a	no change with or without drug	-0.34	-0.17
11	Slitrk3	no change with or without drug	0.67	-0.51
12	Trmu	no change with or without drug	0	0
13	Zic3	no change with or without drug	-0.22	-1.18
14	Dcc	no change with or without drug	1.57	1.18
15	Skic2	no change with or without drug	0.22	0.34
16	Fbxl3	no change with or without drug	-0.45	-0.17
17	Spag5	no change with or without drug	-0.67	0.34
18	Fhit	no change with or without drug	0.34	1.01
19	Glra2	no change with or without drug	-0.11	-1.52
20	5930403N24Rik	high cell count without drug only	-0.79	2.19
21	Amz1	no change with or without drug	-0.11	-0.84
22	Dcaf11	no change with or without drug	0.22	-0.17
23	Or5an1c	no change with or without drug	0.22	1.18
24	Dync1h1	no change with or without drug	-0.45	0.17
25	Aldh8a1	no change with or without drug	0.9	-0.17
26	Wnk3	no change with or without drug	1.12	1.69
27	Mrps25	low cell count with and without drug	-2.7	-2.53
28	Epha4	no change with or without drug	0.67	-0.51
29	Kcnb2	no change with or without drug	-1.35	-0.51
30	Il5ra	no change with or without drug	-0.11	-0.84
31	Emc7	no change with or without drug	1.24	0.84
32	Trub1	no change with or without drug	0.67	-1.01
33	Or14a259	no change with or without drug	-0.22	-1.85
34	Cmc2	high cell count with doxorubicin only	2.36	0.17

As entered above:
Result for Dync1h1 in “combined z-score class”: no change with or without drug
Value of Or14a259 in “viability z-score with doxorubicin”: -0.22
Under “combined z-score class”, Cmc2 reads high cell count with doxorubicin only
